# PubChem BioAssay AID1508588 | Peter MacCallum Cancer Centre | 2020
# Aim: 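Knock-downs boosting vemurafenib effects on melanoma cell growth or lactate release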 (primary screen)
# Cell system: human WM266.4 melanoma cells (BRAF V600 mutant)
# Reagent: siRNA pool against human genes, 40 nM
# Duration: 96 h from transfection to read-out
# Challenge: vemurafenib 300 nM (about IC25), added 48 h after transfection, for 48 h; comparison arm got DMSO vehicle only
# Measurement: 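Cell gain (DAPI nuclei at end minus before drug, mean of two replicates) and medium lactate by absorbance per cell, both as ratio to non-targeting siRNA, also grouped into fold-change classes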
# Reading the numbers: cell gain with vemurafenib: higher = more cell gain than with non-targeting siRNA; lactate per cell with vemurafenib: higher = more lactate made per cell
# Rule for the call: 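a knock-down counts as enhancing when its fold-change classes with vehicle and with vemurafenib, taken together, show a stronger drug effect on cell gain or lactate per cell; exact class pairs not stated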
# Meaning of the calls: active = enhances vemurafenib effect; inactive = no enhancement seen
# Shown is one part, drawn at random, of about 18,000 deposited reagents. 790 of them (4.4%) count as active. 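Calls rest on a combination of fold-change classes in drug and vehicle arms, not all shown here.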 Unmarked entries are inactive.
gene,cell gain with vemurafenib,lactate per cell with vemurafenib
CGNL1 (GeneID 84952),0.76,0.69
SLC7A9 (GeneID 11136),0.59,1.31
ADK (GeneID 132),0.64,1.52
LYN (GeneID 4067),0.52,1.73
SNORC (GeneID 389084),0.41,1.54
POLH (GeneID 5429),0.31,1.29
DNAJB3P (GeneID 414061),0.51,0.76
CD4 (GeneID 920),0.59,0.87
CYP2A7 (GeneID 1549),0.8,0.46
CAV1 (GeneID 857),1.1,0.74
KDM5C (GeneID 8242),1.13,1.08
CITED2 (GeneID 10370),0.68,0.72
GABRG1 (GeneID 2565),0.87,1.29
GALNT7 (GeneID 51809),0.91,0.54
TMEM196 (GeneID 256130),1.16,0.38
NPL (GeneID 80896),0.8,0.6
PLAC8 (GeneID 51316),0.48,0.46
CWC27 (GeneID 10283),0.65,0.82
SOD2 (GeneID 6648),1,1.12
TLX1 (GeneID 3195),1.06,0.84
DACT3 (GeneID 147906),0.56,0.92
VMAC (GeneID 400673),0.13,1.4
ADRB1 (GeneID 153),0.83,0.34
ARFGAP1 (GeneID 55738),0.25,1.26
MED21 (GeneID 9412),0.17,1.59
U2AF1L4 (GeneID 199746),0.35,0.84
PSMB10 (GeneID 5699),0.48,1.53
MAGEE2 (GeneID 139599),0.56,1.48
GRIA4 (GeneID 2893),1.15,0.46
SHROOM1 (GeneID 134549),0.26,1.16
OR1L3 (GeneID 26735),0.7,0.62
MAD2L1BP (GeneID 9587),0.76,0.86
LRRC36 (GeneID 55282),0.23,0.82
ZNF248 (GeneID 57209),0.59,0.96
KIF26A (GeneID 26153),0.41,1.92
CERT1 (GeneID 10087),0.78,0.58
BTBD3 (GeneID 22903),0.99,0.54
TRIM5 (GeneID 85363),0.93,1.13
HAND1 (GeneID 9421),0.85,0.94
FANCL (GeneID 55120),0.9,1.27
PHF14 (GeneID 9678),0.17,1.32
SLC38A7 (GeneID 55238),0.74,0.86
GPATCH2L (GeneID 55668),0.26 (active),0.59
LYZL2 (GeneID 119180),0.54,0.71
CCDC187 (GeneID 399693),0.37,1.01
SIK1 (GeneID 150094),0.85,0.47
NUP93 (GeneID 9688),0.14,2.08
ZC2HC1C (GeneID 79696),0.53,1.1
GTPBP3 (GeneID 84705),0.99,0.94
TNFSF9 (GeneID 8744),1.04,0.76
BPGM (GeneID 669),1.24,0.55
PLCL2 (GeneID 23228),0.79,1.42
FZD1 (GeneID 8321),0.14,2.96
NAV3 (GeneID 89795),1.11,0.82
MBIP (GeneID 51562),-0.12,0.37
KRTAP3-1 (GeneID 83896),1.13,0.6
ACOXL (GeneID 55289),0.3 (active),0.68
TCFL5 (GeneID 10732),-0.22,1.66
REG3A (GeneID 5068),0.61,1.15
EYA3 (GeneID 2140),0.5,0.94
MATN1 (GeneID 4146),0.9,1.06
OR4C16 (GeneID 219428),0.26,1.12
MAML3 (GeneID 55534),0.26,1.34
NOXRED1 (GeneID 122945),0.76,0.34
TPT1 (GeneID 7178),1.27,0.55
TOLLIP (GeneID 54472),0.33,1.54
LRP8 (GeneID 7804),0.76,0.56
HSPB1 (GeneID 3315),0.71,0.66
FCGRT (GeneID 2217),0.96,0.83
RBM48 (GeneID 84060),0.76,1.48
PEX5 (GeneID 5830),0.61,1.08
INCENP (GeneID 3619),-0.05,4.64
SCAF1 (GeneID 58506),0.12,3.39
CIMAP1A (GeneID 113746),0.67,0.5
RBMX2 (GeneID 51634),0.1,3.36
GUCY2C (GeneID 2984),0.96,0.63
TMEM106C (GeneID 79022),0.9,0.9
TMEM248 (GeneID 55069),0.67,0.86
SECTM1 (GeneID 6398),0.67,1.15
PARN (GeneID 5073),1.2,0.66
NXPH4 (GeneID 11247),0.54,1.6
PLK4 (GeneID 10733),0.48,1.75
SYT11 (GeneID 23208),0.3,1.95
CFAP57 (GeneID 149465),0.58,1.34
